Results deposited as PubChem BioAssay AID1259308 (NCATS, 2017)

Aim: 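Genes whose loss raises luciferase production in HEK293 cells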 (primary screen)
System: human HEK293 embryonic kidney cells stably expressing firefly luciferase (HEK-CMV-Luc2-Hygro)
Reagent: single siRNA against human genes, 0.8 pmol siRNA per well
Duration: 72 h
Detection: 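Reporter luminescence and viable-cell signal on separate replicate plates, given as percent of non-targeting control and median/MAD z-scores, plus per-cell luciferase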
Scale: total luciferase, z-score and total luciferase, % of control: higher = more reporter protein produced; luciferase per cell, z-score: higher = more reporter output per viable cell; viable cells, % of control: higher = more viable cells
Active means: 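An siRNA counts as active if its total luciferase robust z-score exceeds 3; genes with two or more such siRNAs out of three were retested with fresh siRNAs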
Meaning of the calls: active = raised luciferase; inactive = no rise
This is one part, drawn at random, of about 59,000 reagents tested. Over the whole deposit, about 1,510 (2.6%) got an active call. 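Calls use total luciferase alone and ignore viability, so some active siRNAs may act by altering cell number.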 Reagents against one gene are numbered here.

target	reagent	total luciferase, z-score	total luciferase, % of control	luciferase per cell, z-score	viable cells, % of control	activity call
KRT18P55	1	0.725	96.3	0.765	88	inactive
KRT18P55	2	0.0845	83.6	0.17	89.3	inactive
KRT18P55	3	0.393	89.7	0.201	95.1	inactive
SLTM	1	-0.0344	81.2	0.176	86.6	inactive
SLTM	2	-0.508	71.8	-0.433	89.9	inactive
SLTM	3	0.618	94.2	0.31	97	inactive
EEF2K	1	0.555	92.9	0.499	91.1	inactive
EEF2K	2	-0.509	71.8	-0.869	101	inactive
EEF2K	3	0.405	89.9	0.299	92.9	inactive
FAM217A	1	-0.314	75.6	-0.424	94.5	inactive
FAM217A	2	-1.66	48.9	-1.43	79.6	inactive
FAM217A	3	0.792	97.6	1.3	77.5	inactive
RPL10AP3	1	-0.304	75.8	-0.652	101	inactive
RPL10AP3	2	-1.26	56.8	-0.898	80.4	inactive
RPL10AP3	3	-0.692	68.1	-1.2	104	inactive
COPS5	1	0.297	87.8	0.986	75.7	inactive
COPS5	2	-0.861	64.8	-0.0743	73.8	inactive
COPS5	3	-0.517	71.6	0.164	76.6	inactive
UBN2	1	0.337	88.6	0.184	94.3	inactive
UBN2	2	0.416	90.2	0.334	92.3	inactive
UBN2	3	2.53	132	2.12	84.4	inactive
PLA2G4F	1	-0.534	71.3	-0.523	91.4	inactive
PLA2G4F	2	-0.205	77.8	0.0606	85.6	inactive
PLA2G4F	3	0.973	101	0.514	98.8	inactive
EEIG2	1	0.922	100	1.35	78.5	inactive
EEIG2	2	-1.08	60.5	-1.14	91.1	inactive
EEIG2	3	-0.0725	80.4	-0.243	95.8	inactive

Looked up above.
EEIG2 #1, total luciferase, z-score = 0.922
For “activity call”, EEF2K #3 shows inactive
For “luciferase per cell, z-score”, EEF2K #2 is entered as -0.869
PLA2G4F #3, total luciferase, % of control: 101
Value for SLTM #2 under “total luciferase, % of control”: 71.8
Entry of FAM217A #2 under “activity call”: inactive

Additional entries follow.
target	reagent	total luciferase, z-score	total luciferase, % of control	luciferase per cell, z-score	viable cells, % of control	activity call
DACH1	1	-0.811	65.8	-0.837	91.6	inactive
DACH1	2	0.467	91.2	1.28	72.7	inactive
DACH1	3	2.68	135	3.29	63.4	inactive
MUC12	1	-2.56	31	-1.95	57.9	inactive
MUC12	2	0.363	89.1	0.175	95.1	inactive
MUC12	3	1.1	104	1.57	76.6	inactive
CBX7	1	-0.305	75.8	-0.285	91.3	inactive
CBX7	2	-1.27	56.6	-0.774	77.5	inactive
CBX7	3	0.458	91	0.301	93.9	inactive
BICD1	1	-0.38	74.3	0.719	68.7	inactive
BICD1	2	-0.643	69.1	-0.156	80.4	inactive
BICD1	3	-0.365	74.6	-0.584	97.3	inactive
VSTM2B-DT	1	-0.828	65.4	-0.995	95	inactive
VSTM2B-DT	2	0.771	97.2	0.726	89.7	inactive
VSTM2B-DT	3	-0.486	72.2	0.064	79.4	inactive
VENTX	1	0.402	89.9	0.189	95.6	inactive
VENTX	2	-0.559	70.8	-0.428	88.5	inactive
VENTX	3	0.462	91.1	0.274	94.7	inactive
SRP19	1	-0.492	72.1	-0.77	98.7	inactive
SRP19	2	1.16	105	0.415	105	inactive
SRP19	3	0.104	84	-0.143	97.4	inactive
C11orf16	1	0.729	96.4	0.603	91.9	inactive
C11orf16	2	-0.281	76.3	-0.555	98.7	inactive
C11orf16	3	-0.623	69.5	0.387	70.1	inactive
FBXW8	1	0.657	94.9	1.04	80.7	inactive
FBXW8	2	-0.413	73.7	-0.787	101	inactive
FBXW8	3	0.446	90.8	0.432	90.5	inactive
CNFN	1	0.163	85.1	0.449	84.5	inactive
CNFN	2	1.45	111	0.567	107	inactive
CNFN	3	-0.89	64.2	-1.1	95.8	inactive
INSIG1	1	2.89	139	2.24	86.3	inactive
INSIG1	2	-0.166	78.6	-0.801	108	inactive
INSIG1	3	0.25	86.9	0.131	93.8	inactive
RNF41	1	-0.0166	81.6	-0.262	97.6	inactive
RNF41	2	-0.339	75.2	0.472	74.2	inactive
RNF41	3	-0.54	71.1	0.955	61.8	inactive
NSRP1	1	1.93	120	1.05	102	inactive
NSRP1	2	0.453	90.9	0.619	86.3	inactive
NSRP1	3	2.53	132	1.74	93.3	inactive
CES4A	1	0.607	94	0.733	86.6	inactive
CES4A	2	-0.871	64.6	-0.873	90.8	inactive
CES4A	3	2.22	126	1.22	102	inactive
ACADS	1	-0.764	66.7	-1.01	97.1	inactive
ACADS	2	-0.476	72.4	0.275	75.3	inactive
ACADS	3	3.41	150	2.75	81.2	active
ZBTB48	1	-0.778	66.4	-0.452	83.6	inactive
ZBTB48	2	-0.268	76.6	1.11	63.9	inactive
ZBTB48	3	-0.0859	80.2	-0.394	99.4	inactive
